Sequences of proteins named here, by UniProt entry; tags and fusion partners are left off.
UniProt P63208: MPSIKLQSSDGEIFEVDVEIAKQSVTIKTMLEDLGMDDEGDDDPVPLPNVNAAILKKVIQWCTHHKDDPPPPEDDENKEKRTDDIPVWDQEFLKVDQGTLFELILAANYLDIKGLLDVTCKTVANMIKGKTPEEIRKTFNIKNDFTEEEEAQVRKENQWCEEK

According to PMC7310287:

Target: T1, Flag-FBXL6 (human) (UniProt Q8N531)
T1 sequence: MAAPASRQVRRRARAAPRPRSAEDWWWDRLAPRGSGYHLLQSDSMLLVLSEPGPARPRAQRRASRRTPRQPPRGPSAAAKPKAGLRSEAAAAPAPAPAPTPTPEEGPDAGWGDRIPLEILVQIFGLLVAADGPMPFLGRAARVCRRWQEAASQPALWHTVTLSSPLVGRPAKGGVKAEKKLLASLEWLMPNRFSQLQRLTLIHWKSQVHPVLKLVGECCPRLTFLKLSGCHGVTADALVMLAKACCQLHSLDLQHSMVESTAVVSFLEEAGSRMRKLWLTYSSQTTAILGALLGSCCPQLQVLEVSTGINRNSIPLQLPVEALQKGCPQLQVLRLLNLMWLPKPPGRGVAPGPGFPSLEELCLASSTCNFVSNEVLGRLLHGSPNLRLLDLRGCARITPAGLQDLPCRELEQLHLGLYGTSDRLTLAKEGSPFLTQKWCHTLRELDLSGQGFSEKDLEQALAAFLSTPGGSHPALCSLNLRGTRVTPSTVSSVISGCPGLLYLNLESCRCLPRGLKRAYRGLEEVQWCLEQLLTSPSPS
Experiment: affinity purification with mass spectrometry; lysates of 293T cells transfected with Flag-con or Flag-FBXL6, IP with Flag M2 beads overnight at 4 °C, eluted by boiling, SDS-PAGE, Coomassie staining, mass spectrometry

Substance	binding
HSP90AA1 (from UniProt P07900 1-732)	binds
SKP1 (from UniProt P63208 1-163)	binds

These are yes or no findings as the source states them, for the method shown. In cells and extracts the contact can be indirect. Here binding means that the protein was enriched with, or labelled near, the bait; the list need not be complete. Sequences can lack the tags named with a protein.
